# Experimental data: the supplement of paper PMC8728848
# The other results are listed elsewhere or left out.
# B1: CD4 (Rattus norvegicus), P05540 (protein)
# chain: MCRGFSFRHLLPLLLLQLSKLLVVTQGSTSITAYKSEGESAEFSFPLNLGEESLQGELRWKAEKAPSSQSWITFSLKNQKVSVQKSTSNPKFQLSETLPLTLQIPQVSLQFAGSGNLTLTLDRGILYQEVNLVVMKVTQPDSNTLTCEVMGPTSPKMRLILKQENQEARVSRQEKVIQVQAPEAGVWQCLLSEGEEVKMDSKIQVLSKGLNSGGGSGGGTGGGDLAPQMLRELQETNAALQDVRELLRQQVKEITFLKNTVMECDACGLDRNLPPLAPLGPHPETLVKVKDAEDQLGARVGYIELDLNSGKILESFRPEERFPMMSTFKVLLCGAVLSRIDAGQEQLGRRIHYSQNDLVEYSPVTEKHLTDGMTVRELCSAAITMSDNTAANLLLTTIGGPKELTAFLHNMGDHVTRLDRWEPELNEAIPNDERDTTMPVAMATTLRKLLTGELLTLASRQQLIDWMEADKVAGPLLRSALPAGWFIADKSGAGERGSRGIIAALGPDGKPSRIVVIYTTGSQATMDERNRQIAEIGASLIKHW
# Assays:
# Experiment in all cases: glycan array binding signal (z-score within array); higher = stronger binding
# Conditions in all cases: glycan notation: IUPAC condensed, linker removed
# Fuc(a1-3)GlcNAc = molecular target: Fuc(a1-3)GlcNAc
# Outline: (§1)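 Negative Z-scores can be read as non-binding. The Z-score is calculated within each array and then averaged across arrays of one protein sequence at different concentrations or buffers and across linkers. Arrays, 3228 in all, were curated from the Consortium for Functional Glycomics database and kept only where the protein sequence was available.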
# [1] = molecular target: Fuc(a1-3)[Gal(b1-4)]Glc6S
# Outline: as §1
# [2] = molecular target: Fuc(a1-3)[Gal(b1-4)]GlcNAc
# Outline: as §1
# [3] = molecular target: Fuc(a1-3)[Gal(b1-4)]GlcNAc(b1-2)Man
# Outline: as §1
# [4] = molecular target: Fuc(a1-3)[Gal(b1-4)]GlcNAc(b1-2)Man(a1-3)[Fuc(a1-3)[Gal(b1-4)]GlcNAc(b1-2)Man(a1-6)]Man(b1-4)GlcNAc(b1-4)GlcNAc
# Outline: as §1
# [5] = molecular target: Fuc(a1-3)[Gal(b1-4)]GlcNAc(b1-2)Man(a1-3)[Fuc(a1-3)[Gal(b1-4)]GlcNAc(b1-2)Man(a1-6)]Man(b1-4)GlcNAc(b1-4)[Fuc(a1-6)]GlcNAc
# Outline: as §1
# [6] = molecular target: Fuc(a1-3)[Gal(b1-4)]GlcNAc(b1-3)Gal(b1-3)[Fuc(a1-4)]GlcNAc
# Outline: as §1
# [7] = molecular target: Fuc(a1-3)[Gal(b1-4)]GlcNAc(b1-3)GalNAc
# Outline: as §1
# [8] = molecular target: Fuc(a1-3)[Gal(b1-4)]GlcNAc(b1-4)Gal(b1-4)[Fuc(a1-3)]GlcNAc
# Outline: as §1
# [9] = molecular target: Fuc(a1-3)[Gal(b1-4)]GlcNAc(b1-4)Gal(b1-4)[Fuc(a1-3)]GlcNAc(b1-4)Gal(b1-4)[Fuc(a1-3)]GlcNAc
# Outline: as §1
# [10] = molecular target: Fuc(a1-3)[Gal(b1-4)]GlcNAc(b1-6)GalNAc
# Outline: as §1
# [11] = molecular target: Fuc(a1-3)[Gal(b1-4)]GlcNAc(b1-6)[Gal(b1-3)GlcNAc(b1-3)]Gal(b1-4)Glc
# Outline: as §1
# [12] = molecular target: Fuc(a1-3)[Gal(b1-4)]GlcNAc6S
# Outline: as §1
# [13] = molecular target: Fuc(a1-3)[Gal3S(b1-4)]Glc
# Outline: as §1
# [14] = molecular target: Fuc(a1-3)[Gal3S(b1-4)]GlcNAc
# Outline: as §1
# [15] = molecular target: Fuc(a1-3)[Gal3S(b1-4)]GlcNAc6S
# Outline: as §1
# [16] = molecular target: Fuc(a1-3)[GalNAc(b1-4)]GlcNAc
# Outline: as §1
# [17] = molecular target: Fuc(a1-3)[GalNAc(b1-4)]GlcNAc6S
# Outline: as §1
# Fuc(a1-4)GlcNAc = molecular target: Fuc(a1-4)GlcNAc
# Outline: as §1
# Fuc(b1-3)GlcNAc = molecular target: Fuc(b1-3)GlcNAc
# Outline: as §1
# Gal(a1-2)Gal = molecular target: Gal(a1-2)Gal
# Outline: as §1
# Gal(a1-3)Gal = molecular target: Gal(a1-3)Gal
# Outline: as §1
# Gal(a1-3)Gal(b1-3)GlcNAc = molecular target: Gal(a1-3)Gal(b1-3)GlcNAc
# Outline: as §1
# [18] = molecular target: Gal(a1-3)Gal(b1-3)GlcNAc(b1-2)Man
# Outline: as §1
# [19] = molecular target: Gal(a1-3)Gal(b1-3)GlcNAc(b1-2)Man(a1-3)[Gal(a1-3)Gal(b1-3)GlcNAc(b1-2)Man(a1-6)]Man(b1-4)GlcNAc(b1-4)GlcNAc
# Outline: as §1
# [20] = molecular target: Gal(a1-3)Gal(b1-3)GlcNAc(b1-3)GalNAc
# Outline: as §1
# [21] = molecular target: Gal(a1-3)Gal(b1-3)GlcNAc(b1-6)GalNAc
# Outline: as §1
# [22] = molecular target: Gal(a1-3)Gal(b1-3)[Fuc(a1-4)]GlcNAc(b1-2)Man(a1-3)[Gal(a1-3)Gal(b1-3)[Fuc(a1-4)]GlcNAc(b1-2)Man(a1-6)]Man(b1-4)GlcNAc(b1-4)GlcNAc
# Outline: as §1
# Gal(a1-3)Gal(b1-4)Glc = molecular target: Gal(a1-3)Gal(b1-4)Glc
# Outline: as §1
# Gal(a1-3)Gal(b1-4)GlcNAc = molecular target: Gal(a1-3)Gal(b1-4)GlcNAc
# Outline: as §1
binder,measurement,setting,value
B1,glycan array binding signal (z-score),Fuc(a1-3)GlcNAc,-1.59
same,glycan array binding signal (z-score),[1],-0.879
same,glycan array binding signal (z-score),[2],-0.366
same,glycan array binding signal (z-score),[3],-0.667
same,glycan array binding signal (z-score),[4],-0.554
same,glycan array binding signal (z-score),[5],0.82
same,glycan array binding signal (z-score),[6],-0.514
same,glycan array binding signal (z-score),[7],0.843
same,glycan array binding signal (z-score),[8],0.414
same,glycan array binding signal (z-score),[9],-0.386
same,glycan array binding signal (z-score),[10],0.46
same,glycan array binding signal (z-score),[11],0.161
same,glycan array binding signal (z-score),[12],-0.378
same,glycan array binding signal (z-score),[13],2.21
same,glycan array binding signal (z-score),[14],-0.413
same,glycan array binding signal (z-score),[15],-1.09
same,glycan array binding signal (z-score),[16],2.04
same,glycan array binding signal (z-score),[17],-0.239
same,glycan array binding signal (z-score),Fuc(a1-4)GlcNAc,-0.208
same,glycan array binding signal (z-score),Fuc(b1-3)GlcNAc,0.41
same,glycan array binding signal (z-score),Gal(a1-2)Gal,-0.821
same,glycan array binding signal (z-score),Gal(a1-3)Gal,-0.233
same,glycan array binding signal (z-score),Gal(a1-3)Gal(b1-3)GlcNAc,0.726
same,glycan array binding signal (z-score),[18],-0.413
same,glycan array binding signal (z-score),[19],-0.472
same,glycan array binding signal (z-score),[20],0.801
same,glycan array binding signal (z-score),[21],1.16
same,glycan array binding signal (z-score),[22],1.42
same,glycan array binding signal (z-score),Gal(a1-3)Gal(b1-4)Glc,-0.699
same,glycan array binding signal (z-score),Gal(a1-3)Gal(b1-4)GlcNAc,-0.596

# A stretch of the results above, for reference:
binder,measurement,setting,value
B1,glycan array binding signal (z-score),[11],0.161
same,glycan array binding signal (z-score),[12],-0.378
